Test results as given in paper PMC8001000, “Pitfalls in the Immunochemical Determination of β-Lactam Antibiotics in Water” (Antibiotics, 2021).

Test system: monoclonal mouse anti-AMX antibody A1463 (clone 1.BB.832)
Assay: indirect competitive ELISA (calibration curves of β-lactams and hydrolysis products)
Type: binding
Protocol: For the preparation of standards (calibrators), stock solutions of each compound with a mass concentration of approximately 1 g/L were prepared gravimetrically by weighing the respective compound and amount of solvent. Solvents for these stock solutions were ethanol for amoxicillin piperazine-2,5-dione and 3-(4-hydroxyphenyl)pyrazin-2-ol, or Milli-Q water for all other compounds. Standard solutions of each compound were prepared volumetrically by serial dilution of the respective stock solution in Milli-Q water. All standards and stock solutions were stored at 4 °C in the amber glass vials.
For hydrolysis, standards and samples were diluted in 0.1 M sodium hydroxide solution (1:1) the day before analysis in the assay, i.e., the day of coating (see below), and stored at 4 °C until the next day. Samples for reference analysis without hydrolysis were diluted in Milli-Q water (1:1) prior to analysis.
Each cavity of a 96-well microplate was coated with AMX-HSA (or alternatively AMX-BSA) in PBS (47.619 ng/L, 200 µL/well) and incubated for 18 h at RT with shaking at 750 rpm. Afterwards the plate was washed three times with washing buffer (1:60 dilution of washing buffer 60x in Milli-Q water) and the cavities were blocked with 0.1% (w/v) casein in PBS (200 µL/well) for 1 h at 750 rpm and RT. […] Optical density was read at RT at a wavelength of 450 nm with reference at 620 nm. Data points were plotted in Origin® 2019 (OriginLab, Northampton, MA, USA), calibration curves were obtained by fitting a four-parameter logistic function to the measured data points and sample concentrations were determined by correlating concentration values of hydrolyzed standards with O.D. values of hydrolyzed and non-hydrolyzed samples. Each standard (8 per plate) and sample (24 per plate) was analyzed in triplicate with random distribution across the plate to reduce edge effects.

[1] = error of concentration below 30%, precision profile, hydrolyzed standards

Row | SMILES | measurement range of the assay, lower limit [1] | measurement range of the assay, upper limit [1] | limit of detection (LOD) in the immunoassay (after hydrolysis)
1 | CC1(C)S[C@@H]2[C@H](NC(=O)[C@H](N)c3ccc(O)cc3)C(=O)N2[C@H]1C(=O)O [AMX, amoxicillin] | 3 nM | 7 µM | –
2 | CC1(C)S[C@@H]2[C@H](NC(=O)C(C(=O)O)c3ccccc3)C(=O)N2[C@H]1C(=O)O (stereo partly drawn) [CRB, carbenicillin] | – | – | 0.2 nmol/L
